Values quoted from earlier work, collected in US20010041733A1, “Heterocyclic ester and amide hair growth compositions and uses” (GPI NIL Holdings, Inc., priority 1998, published 2001).
At least one structure is not confirmed: it was looked up by name or label, or the drawing left a doubt.

Settings: topical, but not oral, application; dose-dependent; cited from earlier work

Question: Which hair growth does the source give for `C=CC[C@@H]1/C=C(\C)C[C@H](C)C[C@H](OC)[C@H]2O[C@@](O)(C(=O)C(=O)N3CCCC[C@H]3C(=O)O[C@H](/C(C)=C/[C@@H]3CC[C@@H](O)[C@H](OC)C3)[C@H](C)[C@@H](O)CC1=O)[C@H](C)C[C@@H]2OC` [FK506] here?
Answer: stimulates hair growth
